Laboratory results taken from patent publication US20230365651A1.
No constants are given. Whether binding was seen depends on the method and setting. Binding calls can cover weak binding; strength is not graded here.

molecular target: HLA-B*07:02 (human); experiment: UV peptide exchange, anti-b2m ELISA

binding, binds:
FPFVTGSTEM [… (SEQ ID NO: 330)], FPHPEMTTSM [… (SEQ ID NO: 331)], FPHSEMTTL [… (SEQ ID NO: 332)], FPHSEMTTVM [… (SEQ ID NO: 333)], FPYSEVTTL [… (SEQ ID NO: 334)], HPDPVGPGL [… (SEQ ID NO: 335)], HPKTESATPAAY [… (SEQ ID NO: 336)], HPVETSSAL [… (SEQ ID NO: 337)], HVTKTQATF [… (SEQ ID NO: 338)], LPAGTTGSLVF [… (SEQ ID NO: 339)], LPEISTRTM [… (SEQ ID NO: 340)], LPLDTSTTL [… (SEQ ID NO: 341)], LPLGTSMTF [… (SEQ ID NO: 342)], LPSVSGVKTTF [… (SEQ ID NO: 343)], LPTQTTSSL [… (SEQ ID NO: 344)], LPTSESLVSF [… (SEQ ID NO: 345)], LPWDTSTTLF [… (SEQ ID NO: 346)], MPLTTGSQGM [… (SEQ ID NO: 347)], MPNSAIPFSM [… (SEQ ID NO: 348)], MPSLSEAMTSF [… (SEQ ID NO: 349)], NPSSTTTEF [… (SEQ ID NO: 350)], NVLTSTPAF [… (SEQ ID NO: 351)], SPAETSTNM [… (SEQ ID NO: 352)], SPAMTTPSL [… (SEQ ID NO: 353)], SPLPVTSLL [… (SEQ ID NO: 354)], SPLVTSHIM [… (SEQ ID NO: 355)], SPNEFYFTV [… (SEQ ID NO: 356)], SPSPVPTTL [… (SEQ ID NO: 357)], SPSPVTSTL [… (SEQ ID NO: 358)], SPSTIKLTM [… (SEQ ID NO: 359)], SPSVSSNTY [… (SEQ ID NO: 360)], SPTHVTQSL [… (SEQ ID NO: 361)], SPVPVTSLF [… (SEQ ID NO: 362)], TAKTPDATF [… (SEQ ID NO: 363)], TPLATTQRF [… (SEQ ID NO: 364)], TPLATTQRFTY [… (SEQ ID NO: 365)], TPSVVTEGF [… (SEQ ID NO: 367)], VPTPVFPTM [… (SEQ ID NO: 368)], FPHSEMTTV [… (SEQ ID NO: 369)], PGGTRQSL [PGGTRQSL (SEQ ID NO: 370)], LYVDGFTHW [… (SEQ ID NO: 371)], IPRNPPPTLL [… (SEQ ID NO: 372)], RPRALRDLRIL [… (SEQ ID NO: 373)], NPIGDTGVKF [… (SEQ ID NO: 374)], AAASPLLLL [… (SEQ ID NO: 375)], RPRSPAGQVA [… (SEQ ID NO: 376)], RPRSPAGQVAAA [… (SEQ ID NO: 377)], RPRSPAGQVAA [… (SEQ ID NO: 378)], GPFPLVYVL [… (SEQ ID NO: 379)], IPTYGRTF [IPTYGRTF (SEQ ID NO: 380)], LPEQTPLAF [… (SEQ ID NO: 381)], SPMHDRWTF [… (SEQ ID NO: 382)], TPTKETVSL [… (SEQ ID NO: 383)], YPGLRGSPM [… (SEQ ID NO: 384)], SPALHIGSV [… (SEQ ID NO: 385)]
